In all, about 320,000 compounds went through this assay and about 22,000 (6.9%) were called active. The inconclusive results got no clear call from the source; some entries with a clear call stand among them for comparison. The call rests on the fitted dose curve; in most records, active means well fitted inhibition curve with a large enough effect; inconclusive means small, poorly fitted or top-dose-only effect, or another doubt; inactive means no such curve, though single readings can be large or run the other way. Potencies beside an inconclusive call are fits to weak or partial responses and may not hold up.
Assay: Primary qHTS for delayed death inhibitors of the malarial parasite plastid, 96 hour incubation
Settings: P. falciparum luciferase reporter growth; series mostly up to 28.7 µM
Summary of the method: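 Luminescence readout: decreased luciferase signal marks inhibited growth of reporter-expressing P. falciparum in infected red cells (2% hematocrit, 0.05% parasitemia final), exposed to compound two generations (96 h, 37 C, 5% CO2).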
On the % scale 0 is the no-effect control and ±100 the full control effect; potency means the concentration at half of the fitted maximal effect.

| SMILES | Potency | activity change, negative = inhibition |
| --- | --- | --- |
| COc1ccccc1NC(=O)c1cccc(S(=O)(=O)N2CCN(c3ccccc3)CC2)c1 | inconclusive: 18.5 µM [inhibitor, single point] | – |
| CC(C)NC(=S)N/N=C/c1cccnc1 | inconclusive: 11.7 µM [inhibitor, single point] | – |
| c1ccc(-c2cc(-c3ccc(N4CCOCC4)cc3)nc3ccccc23)cc1 | active: 13.1 µM | – |
| CCNC(=O)COC(=O)COc1ccc(Cl)cc1C | inactive | – |
| CS(=O)(=O)N(CC(=O)N1CCCC1)c1ccccc1F | inconclusive: 18.5 µM [inhibitor, single point] | – |
| CC(=O)c1ccc(N2CCN(S(=O)(=O)c3cc4c(cc3C)NC(=O)CO4)CC2)cc1 | inactive | – |
| OCCCCc1nccc2c1[nH]c1ccccc12 | inactive | – |
| Cc1ccccc1-c1nnn(CC(=O)N2CCN(S(=O)(=O)c3ccc(Cl)cc3)CC2)n1 | inconclusive: 5.22 µM [inhibitor, partial curve, poor fit] | – |
| COc1ccccc1CNC(=O)c1cc2ccccc2o1 | inactive | – |
| COc1cc(CCC(=O)OCC(=O)N(CCC#N)c2ccccc2)cc(OC)c1OC | inactive | – |
| O=C(CN1CCN(Cc2cccc(F)c2)CC1)Nc1ccccc1F | inactive | – |
| COCCN(CC(=O)Nc1ccccc1C(F)(F)F)C(=O)/C=C/c1cc(Cl)c2c(c1)OCO2 | inconclusive: 13.1 µM [inhibitor, single point] | – |
| CCOC(=O)CCCCC(=O)c1[nH]c(=O)[nH]c1CN1CCOCC1 | inconclusive: 10.4 µM [inhibitor, single point] | – |
| COc1ccc(-c2cc(=O)oc3c(C)c(OC(C)C(=O)NCc4ccccn4)ccc23)cc1 (stereo unspecified) | inconclusive: 11.7 µM [inhibitor, partial curve, poor fit] | – |
| Cc1cc(C)cc(NC(=O)c2sc3nc(C)cc(C)c3c2N)c1 | inactive | – |
| O=C(C[n+]1cc(-c2ccc(Cl)c(Cl)c2)n2c1CCC2)c1cccs1 | inconclusive: 0.415 µM [inhibitor, full curve, poor fit] | – |
| CNc1ccc(Oc2nc([N+](=O)[O-])nn2C)cc1 | inconclusive: 9.28 µM [inhibitor, single point] | – |
| Cc1cc(C)cc(N(C(=O)c2csnn2)C(C(=O)NC(C)(C)C)c2cccs2)c1 (stereo unspecified) | inconclusive: 7.38 µM [inhibitor, partial curve] | – |
| COc1ccc(CN2CCOCCOCCN(Cc3ccc(OC)cc3)CCOCCOCC2)cc1 | inconclusive: 14.7 µM [inhibitor, single point] | – |
| COC(=O)c1cc(=O)n(Cc2ccc(OC)cc2)c(=NCc2ccc(OC)cc2)s1 | inconclusive: 2.08 µM [inhibitor, partial curve, poor fit] | – |
| N#Cc1cccc(CSc2nnc(CCCO)n2-c2ccccc2)c1 | inconclusive: 18.5 µM [inhibitor, single point] | – |
| COc1ccccc1OCC#CCNC1CCCCC1C (stereo unspecified) | – | inactive: 37.2% [at 1.15 µM] |
| COC(=O)c1ccc(NC(=O)CCS(=O)(=O)c2ccc3c(c2)NC(=O)C(C)S3)cc1 (stereo unspecified) | inactive | – |

| SMILES | Potency | activity change, negative = inhibition |
| --- | --- | --- |
| Cc1ccc(-c2nc3ccccc3s2)cc1S(=O)(=O)N1CCCC1 | inconclusive: 11.7 µM [inhibitor, partial curve, poor fit] | – |
| Cc1ccc(S(=O)(=O)N2CCC(C(=O)N3CCC3)CC2)cc1 | inconclusive: 18.5 µM [inhibitor, partial curve, poor fit] | – |
| Cc1c(C(=O)N2CCOCC2)oc2c1C(=O)CC(C)(C)C2 | active: 11.7 µM | – |
| C[N+]1(C)CCc2cc3c(cc2[C@H]1[C@@H]1OC(=O)c2c1ccc1c2OCO1)OCO3 | inconclusive: 14.7 µM [inhibitor, partial curve, poor fit] | – |
| CC(C)(C)c1ccccc1NC(=O)Cn1cnc2cc([N+](=O)[O-])ccc2c1=O | inconclusive: 18.5 µM [inhibitor, single point] | – |
| O=C(CCc1ccccc1)c1c(O)cc(O)cc1O | inactive | – |
| COc1cccc(C(=O)NC(C)c2cccc3ccccc23)c1OC (stereo unspecified) | inconclusive: 18.5 µM [inhibitor, single point] | – |
| CSc1cccc(CN2CCC(CO)(Cc3cccc(C(F)(F)F)c3)CC2)c1 | inactive | – |
| CC1=NN(C(=O)Cc2ccccc2)C(O)(c2cccnc2)C1 (stereo unspecified) | inactive | – |
| C=CCn1c2ccccc2c2nnc(SCc3ccc4nonc4c3)nc21 | inactive | – |
| Cc1ccc(-c2cc(C(=O)NCCCN3CCOCC3)c3ccccc3n2)cc1 | inconclusive: 18.5 µM [inhibitor, single point] | – |
| COc1ccc(-c2cc(C(=O)Nc3ccc(C(N)=O)cc3)c3ccccc3n2)cc1OC | active: 3.7 µM | – |
| COc1ccc(CCN2CC(C(=O)N3CCSCC3)CCC2=O)cc1 (stereo unspecified) | inconclusive: 2.33 µM [inhibitor, full curve] | – |
| CC[C@H](CO)Nc1nc(Nc2cccc(Cl)c2)c2ncn(C(C)C)c2n1 | active: 5.22 µM | – |
| CC1(C)NC(=O)N(CC(O)CN(Cc2ccccc2)Cc2ccccc2)C1=O (stereo unspecified) | inconclusive: 4.15 µM [inhibitor, single point] | – |
| CC(=O)O[C@]1(C(C)=O)CCC2C3CCC4=C/C(=N/OCC(=O)O)CC[C@]4(C)C3CC[C@@]21C (stereo partly specified) | inconclusive: 3.7 µM [inhibitor, partial curve] | – |
| ClCC1NCC(c2ccccc2Cl)c2c1[nH]c1ccccc21 (stereo unspecified) | inconclusive: 18.5 µM [inhibitor, single point] | – |
| COc1ccc(C(=O)C2CCCN(C(=O)CSC)C2)cc1OC (stereo unspecified) | active: 13.1 µM | – |
| N#CCSc1nc2sc3c(c2c(=O)n1C1CCCCC1)CCCC3 | inactive | – |
| O=C(c1ccc(S(=O)(=O)Cc2cc(F)ccc2F)c([N+](=O)[O-])c1)N1CCCCC1 | inactive | – |
| CC(C)N(Cc1cc2ccccc2[nH]c1=O)C(=O)C(C)(C)C | inconclusive: 2.94 µM [inhibitor, single point] | – |
| Cc1ccc(N(CN2CCCC2=O)C(=O)c2ccc(C)c(C)c2)cc1 | inconclusive: 18.5 µM [inhibitor, partial curve, poor fit] | – |
| CCOC(=O)c1nn(-c2ccc3ccccc3c2)cc1O | inactive | – |

Shown as tab-separated lines: entries from further up.
SMILES	Potency	activity change, negative = inhibition
N#CCSc1nc2sc3c(c2c(=O)n1C1CCCCC1)CCCC3	inactive	–
CC(C)N(Cc1cc2ccccc2[nH]c1=O)C(=O)C(C)(C)C	inconclusive: 2.94 µM [inhibitor, single point]	–
CCOC(=O)c1nn(-c2ccc3ccccc3c2)cc1O	inactive	–
